According to patent publication US20050287648A1 (UNIVERSITY OF ROCHESTER, published 2005):
Results are given in words; binding and its absence hold for the method and conditions named. Some results given as binding are weak or reduced against the parent protein; the word gives no strength.

By UniProt entry, the sequences of proteins in these tests, tags left out. Where a name states a change or a piece, a line headed by the entry shows the natural chain unless it says otherwise.
UniProt P41238: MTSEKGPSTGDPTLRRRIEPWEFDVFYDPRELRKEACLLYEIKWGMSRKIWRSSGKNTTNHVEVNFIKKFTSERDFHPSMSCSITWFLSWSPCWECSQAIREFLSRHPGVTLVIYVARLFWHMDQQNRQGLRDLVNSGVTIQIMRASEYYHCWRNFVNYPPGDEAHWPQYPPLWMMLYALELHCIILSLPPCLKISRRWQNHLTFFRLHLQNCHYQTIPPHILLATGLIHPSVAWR

Legend:
[1] = biological target: APOBEC-1 (apolipoprotein B mRNA editing catalytic subunit 1) (Homo sapiens (Human)) (UniProt P41238); test: yeast two-hybrid (MatchMaker; his- selection and lacZ filter lift)
[2] = biological target: APOBEC-1 (apolipoprotein B mRNA editing catalytic subunit 1) (Homo sapiens (Human)) (UniProt P41238); test: yeast two-hybrid (MatchMaker; his- selection and lacZ filter lift), figure legend

Substance: APOBEC-1 (apolipoprotein B mRNA editing catalytic subunit 1) (from UniProt P41238 1-236) (enzyme)
- binding [1]: binds
- binding [2]: binds
